Test results from PubChem BioAssay AID485298 (National Center for Advancing Translational Sciences (NCATS), 2010).
The whole screen tested about 320,000 compounds, of which about 740 (0.23%) were called active. This list was built around the results that the source calls inconclusive (neither active nor inactive); the mix of calls is not that of the screen. Calls follow the shape of the dose curve; as a rule, active = well fitted activation curve with a large enough effect; inconclusive = small, poorly fitted or top-dose-only effect; inactive = no such curve, though single readings can be large or run the other way. Potencies of inconclusive entries are doubtful fits and often do not repeat. More than one record can exist for a structure, and the calls need not agree.

Assay: qHTS Assay for Small Molecule Inhibitors of Mitochondrial Division or Activators of Mitochondrial Fusion; also: nearly all actives have a fitted effect of over 45% in size;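 as to growth rescue (activation): temperature-sensitive fusion mutants such as fzo1-1 at 37 °C on non-fermentable ethanol glycerol medium; % of control where 0% means no effect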
Conditions: S. cerevisiae fusion-defective mutant growth rescue, CellTiterGlo 48 h; growth rescue (activation): at 46.1 µM (top of the series) unless noted
Outline: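 Luminescent cell viability in 1536-well qHTS format served as the measure of rescued growth in ts fusion-mutant S. cerevisiae cultured on non-fermentable YPEG for 48 hours at 37C.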
Potency is read from the fitted curve at half-maximal effect.

| SMILES | Potency | growth rescue (activation) |
| --- | --- | --- |
| CC(=O)c1cccc(NC(=O)c2cc(-c3ccco3)on2)c1 | inconclusive: 6.31 µM [activator, single point] |  |
| COc1ccccc1NC(=O)Nc1cccnc1 | inconclusive: 2.82 µM [activator, partial curve] |  |
| O=C(Nc1nc(-c2ccccc2)ns1)c1cccs1 | inconclusive: 11.2 µM [activator, partial curve] |  |
| O=C(/C=C/c1ccc([N+](=O)[O-])cc1)Nc1ncc([N+](=O)[O-])s1 | inconclusive: 31.6 µM [activator, single point] |  |
| CCN(CC)c1ccc(C(=O)OCC(=O)Nc2sccc2C#N)cc1 | inconclusive: 14.1 µM [activator, single point] |  |
| COC(=O)c1ccc(-n2c(C)cc(C(=O)CSc3cccc[n+]3[O-])c2C)cc1 |  | inactive: -8.16% |
| N#Cc1c(N2CCN(C(=O)c3ccccc3Cl)CC2)nc(-c2ccccc2)c2c1CCCC2 |  | inactive: 6.08% |
| CCOC(=O)Nc1ccc2nc(N3CCCCCC3)sc2c1 |  | inactive: 6.49% |
| NC(=S)NNc1cccc(Cl)c1 |  | inactive: 4.79% |
| CCC(=O)N1c2ccc(S(=O)(=O)NCCc3ccc(OC)c(OC)c3)cc2CC1C (stereo not given) |  | inactive: 4.91% |
| c1csc(CSc2nc3ccccc3s2)c1 |  | inactive: 8.14% |
| CC1CC(C)CN(C(=O)COC(=O)c2cc3ccccc3cc2O)C1 (stereo not given) | inconclusive: 14.1 µM [activator, single point] |  |
| CC1CC1c1ccc(/C=C(\C#N)C(=O)Nc2ccc(Cl)cc2)o1 (stereo not given) |  | inactive: 13.2% |
| O=C(O)c1ccc(-c2nnc(-c3cccc(Br)c3)o2)cc1 | inconclusive: 12.6 µM [activator, partial curve] |  |
| CC1CCN(C(=O)c2ccc(SCc3ccccc3F)c([N+](=O)[O-])c2)CC1 | inconclusive: 12.6 µM [activator, partial curve] |  |
| COc1cccc(NC(=O)CN(C)C(=O)c2cc(-c3cccc(Br)c3)nc3ccccc23)c1 | inconclusive: 11.2 µM [activator, partial curve] |  |
| O=C(CC(NS(=O)(=O)c1ccc(Cl)cc1)c1ccco1)N1CCc2ccccc21 (stereo not given) | inconclusive: 22.4 µM [activator, single point] |  |
| Cc1ccc(N2CCN(C(=S)c3ccc(N(C)C)cc3)CC2)cc1 | inconclusive: 31.6 µM [activator, single point] |  |
| CC(C)(C)c1ccccc1OCC(=O)Nc1ncn[nH]1 |  | inactive: 1.88% |
| COc1ccc2c(c1)[nH]c1c(=O)n(/N=C/c3ccc(OC)c(CN4CCCCC4)c3)cnc12 | inconclusive: 5.62 µM [activator, single point] |  |
| CCOc1ccccc1N1CCN(C(=O)c2ccc(-c3ccc(OC(C)=O)cc3)cc2)CC1 | inconclusive: 12.6 µM [activator, partial curve] |  |
| COc1ccc(C2=NS(=O)(=O)N(C)C(C(=O)N3CCOCC3)=C2)cc1 | inconclusive: 5.62 µM [activator, single point] |  |
| CCC(=O)NC(c1cc(Cl)c2cccnc2c1O)C1CC1 (stereo not given) | inconclusive: 3.55 µM [activator, single point] |  |
| O=C(COc1ccccc1)N/N=C/c1ccc([N+](=O)[O-])o1 |  | inactive: -0.954% |

| SMILES | Potency | growth rescue (activation) |
| --- | --- | --- |
| COc1cc2c(cc1NC(=O)CN(C)Cc1cccc(OC)c1OC)oc1ccccc12 | inconclusive: 12.6 µM [activator, partial curve] |  |
| CCC1CSC(Nc2ccc(C(=O)/C=C/c3ccc(Br)cc3)cc2)=N1 (stereo not given) |  | inactive: 23.5% |
| CCn1c2ccc(C)cc2c2n[nH]c(=S)nc21 |  | inactive: -12.6% |
| O=C(c1ccc(COc2ccccc2Cl)o1)N1CCCC1 | inconclusive: 14.1 µM [activator, single point] |  |
| CCOc1ccc(CC(=O)N2CCN=C2SCc2ccc([N+](=O)[O-])cc2)cc1 | inconclusive: 35.5 µM [activator, single point] |  |
| C/C(=N\NC(=O)c1ccc(CSc2nncn2C)cc1)c1cccs1 | inconclusive: 35.5 µM [activator, single point] |  |
| C=CCn1c2ccccc2c(=O)c2cc(C#Cc3cc(OC)cc(OC)c3)ccc21 |  | inactive: 7.84% |
| Cc1cccc(NC(=O)/C=C/c2ccc(Cl)cc2)n1 | inconclusive: 11.2 µM [activator, partial curve] |  |
| CC1CCc2[nH]c3ccc(C(=O)N(C)CC(=O)Nc4ccccc4C(F)(F)F)cc3c2C1 (stereo not given) | inconclusive: 17.8 µM [activator, single point] |  |
| CC1CN(S(=O)(=O)c2cccc(-c3cn4ccccc4n3)c2)CC(C)O1 (stereo not given) | active: 2.82 µM |  |
| CC(C)OCCCN1CC(=O)N2C(c3ccccc3)c3[nH]c4ccccc4c3C[C@H]2C1=O (stereo not given in full) | inconclusive: 0.631 µM [activator, full curve, poor fit] |  |
| COc1ccc(-c2nc(C(=O)NCC3CCCO3)cc3c2[nH]c2ccccc23)cc1 (stereo not given) |  | inactive: -13% |
| CC(C)Cn1c2c(c(O)c(C(=O)Nn3c(Cc4ccccc4)nc4ccccc4c3=O)c1=O)CCCC2 | inconclusive: 3.16 µM [activator, full curve, poor fit] |  |
| CCNC(=S)N(CCc1c(C)[nH]c2ccc(C)cc12)Cc1cccs1 | inconclusive: 35.5 µM [activator, single point] |  |
| CC1CN(c2nc3c(c(=O)n(Cc4ccc(Cl)c(Cl)c4)c(=O)n3C)n2C)CC(C)O1 (stereo not given) | inconclusive: 22.4 µM [activator, single point] |  |
| S=c1[nH]cnc2sc(-c3ccccc3)cc12 |  | inactive: -3.33% |
| Cc1cccc(C(=O)N2CCC(=O)N(C(COCc3ccc(Cl)cc3)Cc3ccccc3)CC2)c1 (stereo not given) | inconclusive: 35.5 µM [activator, single point] |  |
| COc1ccc(/C=C/C(=O)NC(C)CCc2ccccc2)cc1 (stereo not given) | inconclusive: 35.5 µM [activator, single point] |  |
| COc1ccc2c(c1)CC[C@@H]1[C@@H]2CC[C@]2(C)[C@@H](C(=O)O)C[C@@H]12 | inconclusive: 12.6 µM [activator, single point] |  |
| CC(C)Cn1c(SCC(=O)c2ccc(Cl)s2)nnc1-c1ccco1 | inconclusive: 14.1 µM [activator, single point] |  |
| O=C(NC1=NCCS1)c1sc2cc(Cl)cc(Cl)c2c1Cl | inconclusive: 6.31 µM [activator, full curve, poor fit] |  |
| Cn1c(-c2ccc3ccccc3n2)[n+](C)c2ccccc21 |  | inactive: -4.45% |
| CCOC(=O)c1c(NC(=O)C2=C(C)NC(=S)NC2c2ccc(F)cc2F)sc(C)c1C (stereo not given) | inconclusive: 10 µM [activator, partial curve] |  |
| CCOc1ccccc1CNC(=O)c1ccc(Sc2ccc(Cl)cc2)c(NC(C)=O)c1 | inconclusive: 31.6 µM [activator, single point] |  |

| SMILES | Potency | growth rescue (activation) |
| --- | --- | --- |
| OCc1ccc(-c2nn(Cc3ccccc3)c3ccccc23)o1 | active: 20.6 µM |  |
| COc1cccc(-c2nc(CS(=O)(=O)CC(=O)NC3CCC(C)CC3)c(C)o2)c1 (stereo not given) | inconclusive: 12.6 µM [activator, partial curve, poor fit] |  |
| O=C(Nc1cc(C(F)(F)F)ccc1Cl)C(NCc1ccccc1)c1ccccc1 (stereo not given) | inconclusive: 12.6 µM [activator, single point] |  |
| O=C(/C=C/c1ccc(Br)cc1)c1ccco1 |  | inactive: -0.672% |
| CCN(CC)CCNC(=O)c1ccc(NC(=O)Nc2cccc3ccccc23)cc1 |  | inactive: -3.62% |
| Cc1ccnc(N2C3CCC2CC(O)(c2ccccc2)C3)n1 (stereo not given) |  | inactive: -10.2% |
| CCCCNC(=O)CSc1nnc(Cc2ccc(Cl)c(Cl)c2)c(=O)[nH]1 |  | inactive: 2.07% |
| CCOC(=O)[C@H]1[C@H]2COc3ccc(Cl)cc3[C@@H]2N2C(=O)c3cc(Cl)ccc3NC(=O)[C@@]12C | inconclusive: 15.8 µM [activator, single point] |  |
| Cc1ccc(-c2csc(NC(=O)c3ccc(C)o3)n2)cc1 | inconclusive: 31.6 µM [activator, single point] |  |
| Cc1c(-c2nc(N)nc(Nc3ccccc3)n2)oc2ccccc12 | active: 14.1 µM |  |
| CCOC(=O)c1cc(-c2ccc(C)cc2)n(CCC(=O)N2CCN(c3ccccn3)CC2)c1C | inconclusive: 35.5 µM [activator, single point] |  |
| CC1CCc2sc(C(=O)OCC(=O)NC(C)C)cc2C1 (stereo not given) | inconclusive: 20 µM [activator, partial curve] |  |
| CCOc1ccc(N(CC(=O)Nc2ccc(OC)cc2)S(=O)(=O)c2c(C)[nH]c(=O)[nH]c2=O)cc1 | inconclusive: 2.82 µM [activator, full curve, poor fit] |  |
| CC/C(O)=C1\C(=O)CC(C)(C)CC1=Nc1ccccc1C | active: 11.2 µM |  |
| COCCn1c(=O)[nH]c2cc(C(=O)NCCCN3CCN(c4ccc(F)cc4)CC3)ccc2c1=O |  | inactive: 1.16% |
| OCCn1c(-c2ccccc2)csc1=Nc1ccccc1 | active: 11.2 µM |  |
| COC(=O)c1sc2nc(C)nc(SCC(=O)Nc3sccc3C(N)=O)c2c1C | inconclusive: 2 µM [activator, full curve] |  |
| Cc1ccc2cc(CN(Cc3ccco3)C(=O)NC3CCCCC3)c(=O)[nH]c2c1C | inconclusive: 12.6 µM [activator, partial curve] |  |
| COc1ccccc1C1CC(c2ccc(Br)cc2)=NN1C(=O)c1cccnc1 (stereo not given) | active: 15.8 µM |  |
| CC(C)c1ccc(S(=O)(=O)Nc2ccc(-n3cnnn3)cc2)cc1 | inconclusive: 10 µM [activator, partial curve] |  |
| CSc1ccc(Cl)c(C(=O)OCC(=O)NCC(C)C)c1 |  | inactive: 5.97% |
| COc1ccc(C2NC(=O)NC(C)=C2C(=O)OC2CCC(C)CC2)cc1 (stereo not given) | inconclusive: 12.6 µM [activator, partial curve] |  |

An excerpt from above in order of molecular weight, largest number first.

| SMILES | Potency | growth rescue (activation) |
| --- | --- | --- |
| COc1cccc(-c2nc(CS(=O)(=O)CC(=O)NC3CCC(C)CC3)c(C)o2)c1 (stereo not given) | inconclusive: 12.6 µM [activator, partial curve, poor fit] |  |
| OCCn1c(-c2ccccc2)csc1=Nc1ccccc1 | active: 11.2 µM |  |
| CC/C(O)=C1\C(=O)CC(C)(C)CC1=Nc1ccccc1C | active: 11.2 µM |  |

Exported in CSV form: two of the compounds above
SMILES,Potency,growth rescue (activation)
CCOC(=O)Nc1ccc2nc(N3CCCCCC3)sc2c1,,inactive: 6.49%
COc1cc2c(cc1NC(=O)CN(C)Cc1cccc(OC)c1OC)oc1ccccc12,"inconclusive: 12.6 µM [activator, partial curve]",
